In US11274214B2, “Composition of water based coating with a low content of volatile organic compounds and high resistance to dirt handle, and, use of water based coating” (OXITENO S.A. INDÚSTRIA E COMÉRCIO, priority 2017, dated 2022):

Key:
[1] = Hardness evolution of styrene-acrylic latex films containing 8 pcp coalescent; conditions: drying times greater than or equal to 7 days, FIG. 5
[2] = Plastification efficiency: effect of coalescent on minimum film formation temperature (MFFT/TMFF) of latex; conditions: for MFFT Delta: promoted by 1% of coalescer relative to the polymer, estimated by Touissant formula
[3] = Resistance to dirt grip of semi-gloss paint films (delta E, internal methodology); conditions: semi-gloss paint films dried 82 days; FIG. 14

Compound | Hardness evolution of polymer films [1] | Coalescent content relative to the polymer sufficient to form film at 5° C. ([2]; based on the MFFT results of FIG. 2) | MFFT Delta [2] [°C] | Concentration needed to form latex film at 5° C., lower than the market coalescents by ([2]; styrene-acrylic latex, FIG. 2) [%] | Mean delta E difference versus OPTIFILM 300 [3]
isopentyl succinate | more pronounced hardness evolution than the films containing Texanol® | around 6% | 3.1 | 20 | ~3
CCCCC(CC)COC(=O)CCC(=O)OCC(CC)CCCC (stereo not drawn) [2-ethylhexyl succinate, reference compound] |  |  | 0.6 |  | 
CC(C)C(=O)OCC(C)(C)C(OC(=O)C(C)C)C(C)C (stereo not drawn) [OPTIFILM 300] | does not allow a significant evolution of the hardness |  | 2.4 |  | 
CC(C)C(=O)OCC(C)(C)C(O)C(C)C (stereo not drawn) [Texanol] |  |  | 2.4 |  | 
